The list shows a part of the results.
Experiments:
Experiment in all cases: log2 fold change, soluble protein after heating vs DMSO (PISA); higher = thermal stabilisation; K562 cells, 10 uM, 30 min; active = over 0.2 and 3.5 SD of the protein, either way, in both replicates (recomputed)
[1] = compound: CC[C@@H]1C(=O)N(C)c2cnc(Nc3ccc(C(=O)NC4CCN(C)CC4)cc3OC)nc2N1C1CCCC1
How it was run: (§1)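 K562 cells at 2×10^6 cells/mL were treated for 30 min with 10 μM compound, and aliquots were heated for 3 min over 48°C-58°C before pooling. Extraction used PBS with 0.5% NP-40 at 4°C, and soluble protein was the supernatant after 21,000xg for 90 min, measured by TMTpro 16plex LC-MS/MS with channel sums equalised. Thermal stability values, relative to control samples and from duplicates, are log2 fold changes.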

Chains of the proteins cited; added tags and fusions are not shown. Lines headed by an entry give the natural chain unless they say otherwise; changes in a name come on top.
UniProt Q9NYU1: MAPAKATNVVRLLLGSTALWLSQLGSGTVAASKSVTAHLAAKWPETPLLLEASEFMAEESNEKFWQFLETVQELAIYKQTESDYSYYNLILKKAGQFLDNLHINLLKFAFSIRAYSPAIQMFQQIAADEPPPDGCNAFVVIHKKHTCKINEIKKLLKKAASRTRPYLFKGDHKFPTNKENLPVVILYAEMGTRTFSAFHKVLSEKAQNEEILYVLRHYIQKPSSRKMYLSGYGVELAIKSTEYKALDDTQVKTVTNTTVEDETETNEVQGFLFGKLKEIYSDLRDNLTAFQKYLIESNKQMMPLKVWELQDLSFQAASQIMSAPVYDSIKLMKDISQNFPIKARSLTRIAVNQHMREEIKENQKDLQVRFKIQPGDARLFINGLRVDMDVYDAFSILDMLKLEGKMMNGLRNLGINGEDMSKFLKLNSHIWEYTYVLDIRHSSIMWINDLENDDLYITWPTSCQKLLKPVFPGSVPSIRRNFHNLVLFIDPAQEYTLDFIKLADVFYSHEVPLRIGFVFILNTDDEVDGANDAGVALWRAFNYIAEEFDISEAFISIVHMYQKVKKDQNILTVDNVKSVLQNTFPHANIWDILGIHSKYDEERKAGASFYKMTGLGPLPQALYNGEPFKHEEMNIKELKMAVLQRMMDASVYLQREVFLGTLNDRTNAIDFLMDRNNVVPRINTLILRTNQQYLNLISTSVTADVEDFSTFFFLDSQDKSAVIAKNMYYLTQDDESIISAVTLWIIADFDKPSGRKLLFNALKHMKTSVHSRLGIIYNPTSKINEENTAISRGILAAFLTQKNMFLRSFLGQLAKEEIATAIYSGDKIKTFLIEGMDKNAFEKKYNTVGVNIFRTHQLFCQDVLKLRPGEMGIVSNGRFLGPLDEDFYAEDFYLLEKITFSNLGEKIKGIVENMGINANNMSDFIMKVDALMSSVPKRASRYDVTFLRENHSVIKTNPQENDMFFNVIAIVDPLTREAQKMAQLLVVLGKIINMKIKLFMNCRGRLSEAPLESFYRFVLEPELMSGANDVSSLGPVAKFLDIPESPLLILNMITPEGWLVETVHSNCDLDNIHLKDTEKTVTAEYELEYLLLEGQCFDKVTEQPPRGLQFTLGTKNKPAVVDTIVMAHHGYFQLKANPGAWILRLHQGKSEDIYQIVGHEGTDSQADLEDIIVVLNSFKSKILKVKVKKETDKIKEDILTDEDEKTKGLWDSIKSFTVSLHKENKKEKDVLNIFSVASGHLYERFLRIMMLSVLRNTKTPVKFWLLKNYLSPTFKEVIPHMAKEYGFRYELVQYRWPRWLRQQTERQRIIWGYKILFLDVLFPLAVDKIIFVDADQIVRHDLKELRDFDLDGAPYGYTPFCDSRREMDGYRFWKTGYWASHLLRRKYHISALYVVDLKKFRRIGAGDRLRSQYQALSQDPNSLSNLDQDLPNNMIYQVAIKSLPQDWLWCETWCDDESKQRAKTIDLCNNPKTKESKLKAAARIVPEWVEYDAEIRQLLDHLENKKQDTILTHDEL
UniProt Q9H347: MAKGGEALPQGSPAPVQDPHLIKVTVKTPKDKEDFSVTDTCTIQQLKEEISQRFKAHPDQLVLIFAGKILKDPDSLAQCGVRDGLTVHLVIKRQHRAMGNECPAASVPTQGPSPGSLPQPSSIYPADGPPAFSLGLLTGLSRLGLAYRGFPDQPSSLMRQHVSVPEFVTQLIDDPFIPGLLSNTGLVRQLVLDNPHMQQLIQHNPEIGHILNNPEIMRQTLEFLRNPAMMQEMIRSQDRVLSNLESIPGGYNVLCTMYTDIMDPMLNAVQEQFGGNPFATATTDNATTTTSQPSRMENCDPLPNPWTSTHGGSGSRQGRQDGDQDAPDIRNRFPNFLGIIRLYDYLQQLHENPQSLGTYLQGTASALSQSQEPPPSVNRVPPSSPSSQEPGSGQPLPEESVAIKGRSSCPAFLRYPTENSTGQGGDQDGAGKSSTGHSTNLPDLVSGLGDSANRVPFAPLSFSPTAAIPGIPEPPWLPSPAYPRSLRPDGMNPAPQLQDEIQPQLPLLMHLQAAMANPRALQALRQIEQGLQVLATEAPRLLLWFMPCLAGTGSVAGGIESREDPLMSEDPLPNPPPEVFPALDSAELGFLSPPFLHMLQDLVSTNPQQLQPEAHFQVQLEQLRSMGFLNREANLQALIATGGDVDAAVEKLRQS
UniProt P31930: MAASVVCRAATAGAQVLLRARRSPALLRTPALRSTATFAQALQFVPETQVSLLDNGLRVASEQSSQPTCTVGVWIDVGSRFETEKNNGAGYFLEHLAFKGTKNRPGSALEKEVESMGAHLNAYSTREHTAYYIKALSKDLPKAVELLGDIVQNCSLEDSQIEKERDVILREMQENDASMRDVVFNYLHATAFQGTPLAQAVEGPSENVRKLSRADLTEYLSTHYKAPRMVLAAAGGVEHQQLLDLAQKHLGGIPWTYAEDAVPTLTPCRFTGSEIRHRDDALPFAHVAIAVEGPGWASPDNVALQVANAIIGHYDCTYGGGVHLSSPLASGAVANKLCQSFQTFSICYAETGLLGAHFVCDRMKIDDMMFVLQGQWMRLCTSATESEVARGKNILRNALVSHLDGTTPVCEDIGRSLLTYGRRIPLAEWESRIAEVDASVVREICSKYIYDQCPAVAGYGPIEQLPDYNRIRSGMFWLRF
UniProt Q9H1C4: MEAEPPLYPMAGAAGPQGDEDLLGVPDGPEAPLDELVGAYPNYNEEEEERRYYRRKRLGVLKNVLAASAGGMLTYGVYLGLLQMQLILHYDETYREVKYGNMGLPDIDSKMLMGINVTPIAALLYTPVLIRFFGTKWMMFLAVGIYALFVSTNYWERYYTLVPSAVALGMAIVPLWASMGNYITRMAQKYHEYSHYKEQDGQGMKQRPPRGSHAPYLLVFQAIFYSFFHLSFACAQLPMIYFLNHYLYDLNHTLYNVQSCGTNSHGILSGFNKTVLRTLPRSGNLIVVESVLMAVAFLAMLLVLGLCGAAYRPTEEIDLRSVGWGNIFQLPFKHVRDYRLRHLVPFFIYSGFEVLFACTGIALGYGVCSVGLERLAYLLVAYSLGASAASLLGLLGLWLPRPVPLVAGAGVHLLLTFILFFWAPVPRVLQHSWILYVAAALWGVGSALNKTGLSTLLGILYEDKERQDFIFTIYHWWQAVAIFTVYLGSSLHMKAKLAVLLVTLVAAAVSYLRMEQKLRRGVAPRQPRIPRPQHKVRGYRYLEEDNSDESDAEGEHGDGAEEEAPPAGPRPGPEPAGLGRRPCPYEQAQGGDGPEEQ
UniProt Q9NVA1: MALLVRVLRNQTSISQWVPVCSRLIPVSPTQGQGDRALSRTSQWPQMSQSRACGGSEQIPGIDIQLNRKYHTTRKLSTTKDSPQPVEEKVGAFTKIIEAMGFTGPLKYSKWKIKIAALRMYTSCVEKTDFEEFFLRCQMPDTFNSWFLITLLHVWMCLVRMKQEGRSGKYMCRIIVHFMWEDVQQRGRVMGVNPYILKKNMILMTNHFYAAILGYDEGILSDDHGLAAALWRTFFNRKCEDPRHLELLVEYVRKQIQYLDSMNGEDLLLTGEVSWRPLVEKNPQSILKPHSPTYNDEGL
UniProt Q9HAU5: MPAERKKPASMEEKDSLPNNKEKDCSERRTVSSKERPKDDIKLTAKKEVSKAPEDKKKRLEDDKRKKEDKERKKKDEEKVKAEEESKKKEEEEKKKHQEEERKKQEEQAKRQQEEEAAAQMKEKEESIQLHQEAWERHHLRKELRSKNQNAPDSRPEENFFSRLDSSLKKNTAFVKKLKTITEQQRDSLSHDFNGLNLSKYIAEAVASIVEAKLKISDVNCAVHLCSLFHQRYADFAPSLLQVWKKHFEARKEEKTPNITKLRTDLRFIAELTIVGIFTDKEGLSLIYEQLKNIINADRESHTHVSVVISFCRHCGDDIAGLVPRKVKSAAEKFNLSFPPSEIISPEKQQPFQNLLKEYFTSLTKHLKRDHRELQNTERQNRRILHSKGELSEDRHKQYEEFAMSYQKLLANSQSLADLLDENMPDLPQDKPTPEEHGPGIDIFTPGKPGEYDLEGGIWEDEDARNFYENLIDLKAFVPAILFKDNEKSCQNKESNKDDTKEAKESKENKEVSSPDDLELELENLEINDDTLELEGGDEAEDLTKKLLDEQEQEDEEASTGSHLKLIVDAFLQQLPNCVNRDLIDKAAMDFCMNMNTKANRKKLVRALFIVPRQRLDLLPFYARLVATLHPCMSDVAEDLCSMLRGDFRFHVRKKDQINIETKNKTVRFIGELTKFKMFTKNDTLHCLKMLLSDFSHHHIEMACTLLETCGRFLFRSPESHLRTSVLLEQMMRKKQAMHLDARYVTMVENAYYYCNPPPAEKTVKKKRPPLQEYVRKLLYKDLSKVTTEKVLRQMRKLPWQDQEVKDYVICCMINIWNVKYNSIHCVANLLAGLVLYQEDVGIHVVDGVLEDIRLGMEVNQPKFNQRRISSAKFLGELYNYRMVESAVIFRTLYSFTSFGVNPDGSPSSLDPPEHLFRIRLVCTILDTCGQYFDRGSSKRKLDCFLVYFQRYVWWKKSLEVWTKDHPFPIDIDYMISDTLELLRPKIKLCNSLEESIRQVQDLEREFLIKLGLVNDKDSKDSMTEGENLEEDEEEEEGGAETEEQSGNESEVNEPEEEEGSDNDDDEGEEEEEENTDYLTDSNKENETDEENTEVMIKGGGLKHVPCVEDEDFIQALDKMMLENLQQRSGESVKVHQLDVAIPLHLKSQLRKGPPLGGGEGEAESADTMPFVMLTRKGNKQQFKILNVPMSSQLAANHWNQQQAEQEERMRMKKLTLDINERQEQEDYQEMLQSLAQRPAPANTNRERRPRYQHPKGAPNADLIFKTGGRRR
UniProt Q9H3U1: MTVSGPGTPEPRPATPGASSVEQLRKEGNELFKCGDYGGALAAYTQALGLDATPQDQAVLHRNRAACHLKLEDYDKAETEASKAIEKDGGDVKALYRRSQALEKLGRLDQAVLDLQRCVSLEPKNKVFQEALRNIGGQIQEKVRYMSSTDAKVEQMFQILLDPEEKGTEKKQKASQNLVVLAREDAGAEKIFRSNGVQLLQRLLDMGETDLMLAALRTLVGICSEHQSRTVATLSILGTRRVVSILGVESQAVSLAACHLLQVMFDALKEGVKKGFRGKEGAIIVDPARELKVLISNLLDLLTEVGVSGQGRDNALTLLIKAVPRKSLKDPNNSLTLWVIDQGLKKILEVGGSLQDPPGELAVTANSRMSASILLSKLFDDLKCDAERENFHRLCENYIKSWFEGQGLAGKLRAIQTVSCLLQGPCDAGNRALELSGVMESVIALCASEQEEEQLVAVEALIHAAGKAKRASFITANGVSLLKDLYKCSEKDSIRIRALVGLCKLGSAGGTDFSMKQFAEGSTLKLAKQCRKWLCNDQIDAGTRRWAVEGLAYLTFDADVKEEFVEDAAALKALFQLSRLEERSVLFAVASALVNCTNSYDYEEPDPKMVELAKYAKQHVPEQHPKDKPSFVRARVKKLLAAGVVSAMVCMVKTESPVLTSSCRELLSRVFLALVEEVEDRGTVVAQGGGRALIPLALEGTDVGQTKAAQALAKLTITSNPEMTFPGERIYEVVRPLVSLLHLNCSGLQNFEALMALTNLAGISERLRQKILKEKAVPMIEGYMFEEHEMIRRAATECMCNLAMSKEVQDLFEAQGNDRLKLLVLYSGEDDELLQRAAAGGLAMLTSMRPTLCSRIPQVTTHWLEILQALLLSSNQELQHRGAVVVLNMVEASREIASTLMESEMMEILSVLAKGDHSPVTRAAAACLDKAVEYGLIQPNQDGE
UniProt O94874: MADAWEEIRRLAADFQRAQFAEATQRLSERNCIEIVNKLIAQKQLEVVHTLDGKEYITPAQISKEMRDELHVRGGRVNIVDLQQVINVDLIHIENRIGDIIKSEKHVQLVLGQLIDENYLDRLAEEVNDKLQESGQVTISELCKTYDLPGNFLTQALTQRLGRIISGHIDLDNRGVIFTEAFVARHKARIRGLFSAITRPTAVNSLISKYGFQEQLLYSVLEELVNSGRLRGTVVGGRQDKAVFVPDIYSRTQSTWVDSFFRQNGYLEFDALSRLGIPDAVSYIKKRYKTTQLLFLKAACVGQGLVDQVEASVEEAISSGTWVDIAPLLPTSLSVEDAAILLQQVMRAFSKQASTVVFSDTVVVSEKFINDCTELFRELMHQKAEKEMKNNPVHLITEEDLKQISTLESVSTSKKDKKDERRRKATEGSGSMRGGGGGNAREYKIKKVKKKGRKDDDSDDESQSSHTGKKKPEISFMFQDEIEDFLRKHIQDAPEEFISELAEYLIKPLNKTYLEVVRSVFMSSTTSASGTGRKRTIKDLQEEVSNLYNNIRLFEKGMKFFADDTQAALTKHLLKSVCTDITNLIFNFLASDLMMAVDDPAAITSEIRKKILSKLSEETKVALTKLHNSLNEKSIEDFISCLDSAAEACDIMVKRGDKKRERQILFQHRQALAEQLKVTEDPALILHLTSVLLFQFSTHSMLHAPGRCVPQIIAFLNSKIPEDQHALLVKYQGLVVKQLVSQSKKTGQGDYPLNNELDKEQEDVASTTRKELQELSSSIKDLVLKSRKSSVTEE

volasertib = compound: CC[C@@H]1C(=O)N(C)c2cnc(Nc3ccc(C(=O)N[C@H]4CC[C@H](N5CCN(CC6CC6)CC5)CC4)cc3OC)nc2N1C(C)C [volasertib]
How it was run: as §1

[2] = compound: CC[C@H](C)N1C=C(C2=C(C=C(C=C21)C3=CN=C(C=C3)N4CCNCC4)C(=O)NCC5=C(C=C(NC5=O)C)C)C
How it was run: as §1

epoxomicin = compound: CC[C@H](C)[C@@H](C(=O)N[C@@H]([C@@H](C)O)C(=O)N[C@@H](CC(C)C)C(=O)[C@]1(CO1)C)NC(=O)[C@H]([C@@H](C)CC)N(C)C(=O)C [epoxomicin]
How it was run: as §1

[3] = compound: CCn1c(C(=O)N(C2CC2)C2CC2)cc2c3c(ncn3C)c(Nc3cc(C)n(C)n3)nc21
How it was run: as §1

[4] = compound: CCn1cc(-c2ccnc3[nH]c(-c4cccc(CN(C)C)c4)cc23)c(-c2ccc(NC(=O)N(C)C)cc2)n1
How it was run: as §1

[5] = compound: CN(C)CC(=O)Nc1ccc2[nH]c(=O)c3ccccc3c2c1
How it was run: as §1

rosiglitazone = compound: CN(CCOC1=CC=C(C=C1)C[C@H]2C(=O)NC(=O)S2)C3=CC=CC=N3 (racemic) [rosiglitazone]
How it was run: as §1

[6] = compound: CN1C2=C(C3=C1C(=O)N(N=C3)CC4=CC(=CC=C4)N)SC(=C2)S(=O)C
How it was run: as §1

[7] = compound: CN1CCC(CNc2ccc3ncc(-c4cccc(OC(F)(F)F)c4)n3n2)CC1
How it was run: as §1

saracatinib = compound: CN1CCN(CCOc2cc(OC3CCOCC3)c3c(Nc4c(Cl)ccc5c4OCO5)ncnc3c2)CC1 [saracatinib]
How it was run: as §1

sotrastaurin = compound: CN1CCN(c2nc(C3=C(c4c[nH]c5ccccc45)C(=O)NC3=O)c3ccccc3n2)CC1 [sotrastaurin]
How it was run: as §1

alvocidib = compound: CN1CC[C@H](c2c(O)cc(O)c3c(=O)cc(-c4ccccc4Cl)oc23)[C@H](O)C1 [alvocidib]
How it was run: as §1

Tubastatin A = compound: CN1CCc2c(c3ccccc3n2Cc2ccc(C(=O)NO)cc2)C1 [Tubastatin A]
How it was run: as §1

[8] = compound: CNC(=O)C1=CC=CC=C1NC2=NC(=NC=C2Cl)NC3=C(C=C(C=C3)N4CCOCC4)OC
How it was run: as §1

defactinib = compound: CNC(=O)c1ccc(Nc2ncc(C(F)(F)F)c(NCc3nccnc3N(C)S(C)(=O)=O)n2)cc1 [defactinib]
How it was run: as §1

rucaparib = compound: CNCc1ccc(-c2[nH]c3cc(F)cc4c3c2CCNC4=O)cc1 [rucaparib]
How it was run: as §1

[9] = compound: CNc1nc(-c2ccc3c(N)n[nH]c3c2)cc(N2C[C@@H](C(=O)NC3CCCCC3)CC[C@H]2C)n1
How it was run: as §1

encorafenib = compound: COC(=O)N[C@@H](C)CNc1nccc(-c2cn(C(C)C)nc2-c2cc(Cl)cc(NS(C)(=O)=O)c2F)n1 [encorafenib]
How it was run: as §1

[10] = compound: COC(=O)[C@H](CCSC)NC(=O)C1=C(C=C(C=C1)NC[C@H](CS)N)C2=CC=CC=C2
How it was run: as §1

Measured: log2 fold change

UGGT2 (UniProt Q9NYU1)
inactive: [1] 0.01 | volasertib 0.057 | [2] -0.053 | epoxomicin 0.057 | [3] -0.007 | [4] 0.024 | [5] -0.103 | rosiglitazone -0.046 | [6] 0.107 | [7] 0.064 | saracatinib -0.055 | sotrastaurin 0.064 | alvocidib 0.04 | Tubastatin A 0.125 | [8] -0.046 | defactinib -0.029 | rucaparib 0.268 | [9] -0.017 | encorafenib 0.144 | [10] 0.01

UBQLN3 (UniProt Q9H347)
inactive: [1] 0.016 | volasertib -0.175 | [2] -0.094 | epoxomicin -0.01 | [3] -0.063 | [4] 0.109 | [5] -0.096 | [6] -0.007 | [7] -0.119 | saracatinib 0.028 | alvocidib -0.051 | Tubastatin A 0 | [8] -0.059 | defactinib -0.047 | rucaparib 0.202 | [9] -0.036 | encorafenib -0.266 | [10] 0.021

UQCRC1 (UniProt P31930)
inactive: [1] -0.019 | volasertib 0.057 | [2] -0.024 | epoxomicin 0.032 | [3] -0.009 | [4] 0.002 | [5] -0.024 | rosiglitazone 0.008 | [6] -0.049 | [7] 0.012 | saracatinib 0.013 | sotrastaurin 0.011 | alvocidib -0.006 | Tubastatin A -0.013 | [8] -0.032 | defactinib -0.029 | rucaparib -0.004 | [9] -0.051 | encorafenib -0.033 | [10] 0.014

VANGL1 (UniProt Q8TAA9)
inactive: [1] 0.027 | volasertib -0.069 | [2] 0.008 | epoxomicin 0.044 | [3] 0.014 | [4] 0.047 | [5] 0.013 | rosiglitazone -0.03 | [6] 0.196 | [7] 0.109 | saracatinib -0.092 | sotrastaurin 0.036 | alvocidib 0.127 | Tubastatin A 0.078 | [8] -0.047 | defactinib -0.096 | rucaparib 0.103 | [9] -0.047 | encorafenib 0.016 | [10] 0.029

USP6NL isoform 2 (UniProt Q92738)
inactive: [1] -0.173 | volasertib -0.237 | [2] 0.001 | epoxomicin 0.048 | [3] -0.017 | [5] 0.126 | [6] 0.072 | saracatinib -0.007 | sotrastaurin 0.029 | alvocidib -0.309 | Tubastatin A -0.046 | [8] -0.074 | defactinib -0.058 | rucaparib 0.014 | [9] -0.03 | encorafenib -0.154 | [10] -0.063

UNC93B1 (UniProt Q9H1C4)
inactive: [1] 0.006 | volasertib -0.144 | [2] -0.048 | epoxomicin 0.041 | [3] -0.05 | [4] -0.167 | rosiglitazone 0.064 | [6] -0.142 | [7] 0 | saracatinib -0.011 | sotrastaurin 0.214 | alvocidib 0.057 | [8] 0.115 | rucaparib -0.238 | [9] 0.039 | encorafenib -0.046

UQCC1 (UniProt Q9NVA1)
inactive: [1] 0.053 | volasertib 0.059 | [2] 0.004 | epoxomicin 0.042 | [3] 0.037 | [4] -0.038 | [5] -0.031 | rosiglitazone -0.023 | [6] -0.079 | [7] -0.085 | saracatinib 0.065 | sotrastaurin 0.019 | alvocidib -0.03 | Tubastatin A -0.024 | [8] 0.011 | defactinib -0.024 | rucaparib -0.004 | [9] -0.033 | encorafenib -0.023 | [10] 0.019

UMPS (UniProt P11172)
inactive: [1] -0.033 | volasertib 0.013 | [2] 0.011 | epoxomicin 0.039 | [3] 0.011 | [4] 0.005 | [5] -0.023 | rosiglitazone 0.001 | [6] -0.047 | [7] -0.074 | saracatinib 0.022 | sotrastaurin 0.007 | alvocidib -0.033 | Tubastatin A -0.017 | [8] -0.008 | defactinib -0.021 | rucaparib -0.03 | [9] 0.006 | encorafenib -0.001 | [10] -0.013

UPF2 (UniProt Q9HAU5)
inactive: [1] 0.168 | volasertib 0.039 | [2] 0.051 | epoxomicin -0.202 | [3] -0.178 | [4] 0.094 | [5] -0.046 | rosiglitazone -0.033 | [6] 0.321 | [7] 0.083 | saracatinib -0.108 | sotrastaurin -0.038 | alvocidib 0.21 | Tubastatin A 0.073 | [8] -0.081 | defactinib 0.354 | rucaparib 0.381 | [9] 0.115 | encorafenib 0.193 | [10] -0.002

USP22 (UniProt Q9UPT9)
inactive: [1] -0.15 | volasertib -0.168 | [2] 0.144 | epoxomicin 0.089 | [3] -0.042 | [5] 0.099 | rosiglitazone 0.121 | [6] -0.001 | saracatinib -0.018 | sotrastaurin 0.039 | alvocidib -0.055 | Tubastatin A 0.028 | [8] -0.027 | defactinib 0 | rucaparib 0.127 | [9] -0.046 | encorafenib 0.002 | [10] -0.131

UNC45A (UniProt Q9H3U1)
inactive: [1] -0.044 | volasertib -0.395 | [2] 0.058 | epoxomicin -0.014 | [3] -0.067 | [4] 0.04 | [5] 0.017 | rosiglitazone 0.081 | [6] 0.157 | [7] -0.104 | saracatinib -0.079 | sotrastaurin -0.244 | alvocidib 0.002 | Tubastatin A 0.002 | [8] 0.028 | defactinib -0.045 | rucaparib 0.23 | [9] 0.084 | encorafenib 0.133 | [10] -0.095

UVRAG (UniProt Q9P2Y5)
inactive: [1] 0.071 | volasertib -0.031 | [2] -0.031 | epoxomicin -0.032 | [3] 0.071 | [4] -0.013 | [5] 0.016 | rosiglitazone -0.022 | [6] -0.008 | [7] 0.063 | saracatinib 0.032 | sotrastaurin -0.017 | alvocidib -0.064 | Tubastatin A 0.02 | [8] -0.053 | defactinib 0.075 | rucaparib -0.018 | [9] -0.022 | encorafenib -0.077 | [10] -0.073

USP20 (UniProt Q9Y2K6)
inactive: [1] -0.06 | volasertib -0.147 | [2] 0.023 | epoxomicin 0.024 | [3] 0.016 | [5] 0.087 | rosiglitazone 0.19 | [6] 0.221 | saracatinib -0.073 | sotrastaurin 0.088 | alvocidib 0.135 | [8] -0.051 | defactinib -0.084 | rucaparib 0.104 | [9] 0.087 | encorafenib 0.248 | [10] 0.054

UQCRC2 (UniProt P22695)
inactive: [1] -0.008 | volasertib 0.016 | [2] -0.017 | epoxomicin 0.045 | [3] 0.01 | [4] -0.038 | [5] 0.004 | rosiglitazone -0.004 | [6] -0.024 | [7] 0.03 | saracatinib 0.021 | sotrastaurin 0.032 | alvocidib -0.038 | Tubastatin A -0.015 | [8] -0.023 | defactinib -0.012 | rucaparib -0.006 | [9] -0.01 | encorafenib -0.035 | [10] 0.008

UGGT1 (UniProt Q9NYU2)
inactive: [1] -0.01 | volasertib -0.058 | [2] 0.03 | epoxomicin -0.006 | [4] 0.002 | [5] -0.024 | [6] 0.008 | [7] 0.049 | saracatinib -0.006 | sotrastaurin -0.034 | Tubastatin A 0.022 | [8] -0.005 | defactinib 0.019 | rucaparib 0.009 | [9] -0.033 | encorafenib 0.017 | [10] -0.002

2 consecutive entries out of the list so far, quoted:
UVRAG (UniProt Q9P2Y5)
inactive: [1] 0.071 | volasertib -0.031 | [2] -0.031 | epoxomicin -0.032 | [3] 0.071 | [4] -0.013 | [5] 0.016 | rosiglitazone -0.022 | [6] -0.008 | [7] 0.063 | saracatinib 0.032 | sotrastaurin -0.017 | alvocidib -0.064 | Tubastatin A 0.02 | [8] -0.053 | defactinib 0.075 | rucaparib -0.018 | [9] -0.022 | encorafenib -0.077 | [10] -0.073

USP20 (UniProt Q9Y2K6)
inactive: [1] -0.06 | volasertib -0.147 | [2] 0.023 | epoxomicin 0.024 | [3] 0.016 | [5] 0.087 | rosiglitazone 0.19 | [6] 0.221 | saracatinib -0.073 | sotrastaurin 0.088 | alvocidib 0.135 | [8] -0.051 | defactinib -0.084 | rucaparib 0.104 | [9] 0.087 | encorafenib 0.248 | [10] 0.054

The list goes on:

UFL1 (UniProt O94874)
inactive: [1] -0.063 | [2] 0.086 | epoxomicin 0.004 | [4] -0.023 | [5] 0.054 | [6] 0.04 | [7] -0.089 | saracatinib -0.033 | sotrastaurin -0.035 | Tubastatin A 0.076 | [8] 0.018 | defactinib -0.045 | rucaparib 0.1 | [9] 0 | encorafenib 0.121 | [10] -0.119
active: volasertib -0.351

UBXN8 (UniProt O00124)
inactive: [1] 0.081 | volasertib -0.179 | epoxomicin 0.073 | [4] -0.039 | [5] -0.051 | [6] 0.147 | [7] -0.297 | saracatinib -0.054 | sotrastaurin 0.027 | Tubastatin A -0.144 | defactinib 0.065 | [9] -0.112 | encorafenib 0.094 | [10] -0.095
active: rucaparib -0.568

Reference: the supplement of paper PMC10849652
